These are yes or no findings as the source states them, for the method shown. Some results given as binding are weak or reduced against the parent protein; the word gives no strength.
Target: maltose-binding protein fusion of alpha-actinin-4 spectrin repeats/EF hands (271-911aa) (human) (UniProt O43707)
Experiment: co-purification of two co-expressed constructs

Protein sequences, listed by entry. Tags and fused reporters are not part of them. Lines headed by an entry give the natural chain unless they say otherwise; changes in a name come on top. Residues count along the entry.
UniProt O43707: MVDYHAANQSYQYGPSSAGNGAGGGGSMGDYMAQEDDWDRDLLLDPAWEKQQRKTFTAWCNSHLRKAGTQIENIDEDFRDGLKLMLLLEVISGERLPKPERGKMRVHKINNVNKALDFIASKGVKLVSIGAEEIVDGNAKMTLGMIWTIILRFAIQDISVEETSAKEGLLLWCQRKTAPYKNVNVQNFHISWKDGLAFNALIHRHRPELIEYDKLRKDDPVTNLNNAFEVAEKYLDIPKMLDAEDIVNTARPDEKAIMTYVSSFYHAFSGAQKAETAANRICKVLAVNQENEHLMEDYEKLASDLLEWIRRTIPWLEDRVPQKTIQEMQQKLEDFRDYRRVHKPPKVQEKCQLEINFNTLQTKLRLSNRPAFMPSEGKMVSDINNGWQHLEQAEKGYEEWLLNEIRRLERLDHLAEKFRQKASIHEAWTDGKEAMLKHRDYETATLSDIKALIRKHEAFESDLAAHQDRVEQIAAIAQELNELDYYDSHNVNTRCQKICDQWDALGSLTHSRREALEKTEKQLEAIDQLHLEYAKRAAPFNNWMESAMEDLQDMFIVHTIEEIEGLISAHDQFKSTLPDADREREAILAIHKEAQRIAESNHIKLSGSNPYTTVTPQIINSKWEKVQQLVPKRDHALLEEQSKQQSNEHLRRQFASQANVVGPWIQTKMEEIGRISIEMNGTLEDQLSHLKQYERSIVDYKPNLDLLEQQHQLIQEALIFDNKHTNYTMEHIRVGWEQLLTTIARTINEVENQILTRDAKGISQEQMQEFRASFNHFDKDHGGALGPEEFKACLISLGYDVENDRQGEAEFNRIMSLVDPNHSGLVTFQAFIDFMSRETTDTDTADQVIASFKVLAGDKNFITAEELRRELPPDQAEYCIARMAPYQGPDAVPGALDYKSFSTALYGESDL
maltose-binding protein fusion of alpha-actinin-4 spectrin repeats/EF hands (271-911aa): residues 271-911 of O43707

binding: binds
Substance: recombinant 6-His tagged alpha-actinin-4 full length (1-911aa) (from UniProt O43707-1 1-911)
